Reference: ChEMBL document CHEMBL1132410, “5-Chloro-N-(4-methoxy-3-piperazin-1-yl- phenyl)-3-methyl-2-benzothiophenesulfon- amide (SB-271046): a potent, selective, and orally bioavailable 5-HT6 receptor antagonist” (J Med Chem, 1999)

Chains of the proteins cited; added tags and fusions are not shown.
UniProt P50406, whole entry: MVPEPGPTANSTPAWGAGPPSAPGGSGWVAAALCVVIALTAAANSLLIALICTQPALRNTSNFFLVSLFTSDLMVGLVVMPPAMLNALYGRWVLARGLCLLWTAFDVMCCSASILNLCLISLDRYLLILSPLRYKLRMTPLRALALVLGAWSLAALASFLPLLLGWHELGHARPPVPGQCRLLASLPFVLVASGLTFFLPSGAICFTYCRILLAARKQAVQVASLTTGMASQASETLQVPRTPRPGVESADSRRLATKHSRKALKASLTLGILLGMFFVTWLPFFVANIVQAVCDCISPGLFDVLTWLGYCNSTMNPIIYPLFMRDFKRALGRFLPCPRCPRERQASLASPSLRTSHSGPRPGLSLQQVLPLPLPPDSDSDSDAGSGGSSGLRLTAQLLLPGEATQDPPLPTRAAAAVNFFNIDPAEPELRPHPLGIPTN

Target: 5-hydroxytryptamine receptor 6 (Homo sapiens, UniProt P50406)
Test: Binding affinity against human cloned 5-hydroxytryptamine 6 receptor in HeLa cells using [3H]LSD
Format: cell-based
Summary of the method: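 Radioligand binding at human cloned receptors; cell hosts and radioligands as listed per line: 5-HT1A, 5-HT2A, 5-HT2B, 5-HT2C and 5-HT7 in HEK 293 cells; 5-HT1B, 5-HT1D, 5-HT1E, 5-HT1F, D2 and D3 in CHO cells; 5-HT6 in HeLa cells. Values are the mean of at least two determinations, each within 0.2 log unit of the mean.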

Ki: 2.51 nM
SMILES: COc1ccc(NS(=O)(=O)c2ccc(I)cc2)cc1N1CCN(C)CC1
